Measured values: US20250136687A1
Positions count from the first letter of the chain named. These are yes or no findings as the source states them, for the method shown. Some entries that bind do so weakly or less than the wild type.

Chains of the proteins cited; added tags and fusions are not shown. Residues count along the entry.
UniProt Q95LI5, residues 22-117: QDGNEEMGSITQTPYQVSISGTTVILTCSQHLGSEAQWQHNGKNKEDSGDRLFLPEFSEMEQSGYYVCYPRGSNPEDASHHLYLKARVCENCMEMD

B1: 1-22.6-1-H2a-L2a humanized antibody (antibody, human IgG1, kappa, V domains shown)
VH: EVQLVQSGSELKKPGASVKVSCKTSGYTFTSYGMSWVRQAPGQGLEWMGWINTYSGVPTYAQDFKGRFVFSLDTSVSTAYLQISSLKAEDTAVYYCARLKNNPFVWGQGTTVTVSS
VL: DIVMTQSPDSLAVSLGERATINCRSSQLILHSSGNTYLEWYQQKPGQSPKLLIYKVSNRFSGVPDRFSGSGSGTDFTLTISSLQAEDVAVYYCFQGSHFPWTFGGGTKVEIKR
B2: 7-35.6-H2-L3 humanized antibody (antibody, human IgG1, lambda, V domains shown)
VH: EVQLVESGGGLVQPGGSLKLSCAASGFTFNTYAMNWVRQASGKGLEWVGRIRSKINNYATYYGDSVKDRFTISRDDSKNTFYLQMNSLKTEDTAVYYCVIHENYGSISWFAYWGQGTLVTVSS
VL: ETVVTQEPSLTVSPGGTVTLTCRSSTGAVTTSNYANWVQQKPGQAFTGLIGGTNNRAPWTPARFSGSLLGGKAALTLSGVQPEDEAEYYCALWYSNHWVFGGGTKLTVLG
B3: 5-40.21-H3-L1 humanized antibody (antibody, human IgG1, kappa, V domains shown)
VH: EVQLVQSGAEVKKPGASVKVSCKASGYTFTSYWMHWVRQAPGQGLEWMGNTYPGSGSTNYDEKFKSRVTITVDSSASTAYMELSSLRSEDTAVYYCTRDRYGVYYFDYWGQGTTVTVSS
VL: DIVMTQSPDSLAVSLGERATINCKSSQSLLNSRTRKNYLAWYQQKPGQSPKLLIYWASTRESGVPDRFSGSGSGTDFTLTISSLQAEDVAVYYCTQSYNLRTFGGGTKVEIKR
B4: 6-44.5-H1-L2 humanized antibody (antibody, human IgG1, kappa, V domains shown)
VH: EVQLVQSGAEVKKPGSSVKVSCKASGHTFSSHIMHWVRQAPGQGLEWMGYINPNNDRTEYSEKFKGRVTITADKSTSTAYMELSSLRSEDTAVYYCAGEAYYSNSLYAMDYWGQGTTVTVSS
VL: B3 VL with L30F, T95K, N99Y
B5: 5-7.13-H1a-L2 humanized antibody (antibody, human IgG1, kappa, V domains shown)
VH: EVQLVQSGAEVKKPGASVKVSCKASGYTFTSYWVHWVRQAPGQRLEWMGNINPSDGVTNYNEKFKSRVTITVDKSASTAYMELSSLRSEDTAVYYCTRDAYGQYYFDNWGQGTTVTVSS
VL: DIVMTQTPLSLPVTPGEPASISCKSSQSLLNSRTRKNYLAWYLQKPGQSPQLLIYWASVRDSGVPDRFSGSGSGTDFTLKISRVEAEDVGVYYCIQSYYLRTFGGGTKVEIKR
B6: 8-18.1-H1-L2 humanized antibody (antibody, human IgG1, kappa, V domains shown)
VH: EVQLVQSGAEVKKPGASVKVSCKASGYTFTMNTMHWVRQAPGQRLEWMGYINPYSGYTKYNQIFKDRVTITADKSASTAYMELSSLRSEDTAVYYCLRGGEGVWGQGTTVTVSS
VL: DVVMTQSPLSLPVTLGQPASISCKSSQSLLDSDGKTYLNWLQQRPGQSPRRLIYLVSELGSGVPDRFSGSGSGTDFTLKISRVEAEDVGVYYCWQGTHFPRTFGGGTKVEIKR

Molecular target: monkey CD3ε protein (monkey) (UniProt Q95LI5)
Assay: ELISA, coated antigen

binding, binds:
B1
B2
B3
B4
B5
B6
